Source: article PMC10616211
Results are given in words; binding and its absence hold for the method and conditions named. For some of these results: Binding seen in cells or lysates may run through a third protein. Some results given as binding are weak or reduced against the parent protein; the word gives no strength. For some of these results: Tags and fused reporters may be left off the sequences shown. Each block holds one substance with its values, some of them ahead of it.

Amino acid sequences for entries named in this document (tags omitted). A change or cut given only in a name is not applied to a line headed by its entry. Residues count along the entry.
UniProt P21796: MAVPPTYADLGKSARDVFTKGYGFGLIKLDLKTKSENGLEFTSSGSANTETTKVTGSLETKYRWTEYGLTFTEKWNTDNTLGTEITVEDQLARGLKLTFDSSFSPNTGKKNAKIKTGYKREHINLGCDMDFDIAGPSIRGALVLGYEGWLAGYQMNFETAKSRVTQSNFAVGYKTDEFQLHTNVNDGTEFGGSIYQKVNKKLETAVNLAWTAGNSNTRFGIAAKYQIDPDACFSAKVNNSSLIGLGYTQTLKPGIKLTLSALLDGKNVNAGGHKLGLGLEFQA
UniProt P61586: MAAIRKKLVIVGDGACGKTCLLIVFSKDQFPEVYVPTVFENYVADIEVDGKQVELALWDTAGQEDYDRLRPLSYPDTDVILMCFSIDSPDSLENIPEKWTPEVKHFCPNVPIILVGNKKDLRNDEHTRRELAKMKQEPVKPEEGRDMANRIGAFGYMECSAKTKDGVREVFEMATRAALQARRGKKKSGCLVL
UniProt P38646, residues 47-679: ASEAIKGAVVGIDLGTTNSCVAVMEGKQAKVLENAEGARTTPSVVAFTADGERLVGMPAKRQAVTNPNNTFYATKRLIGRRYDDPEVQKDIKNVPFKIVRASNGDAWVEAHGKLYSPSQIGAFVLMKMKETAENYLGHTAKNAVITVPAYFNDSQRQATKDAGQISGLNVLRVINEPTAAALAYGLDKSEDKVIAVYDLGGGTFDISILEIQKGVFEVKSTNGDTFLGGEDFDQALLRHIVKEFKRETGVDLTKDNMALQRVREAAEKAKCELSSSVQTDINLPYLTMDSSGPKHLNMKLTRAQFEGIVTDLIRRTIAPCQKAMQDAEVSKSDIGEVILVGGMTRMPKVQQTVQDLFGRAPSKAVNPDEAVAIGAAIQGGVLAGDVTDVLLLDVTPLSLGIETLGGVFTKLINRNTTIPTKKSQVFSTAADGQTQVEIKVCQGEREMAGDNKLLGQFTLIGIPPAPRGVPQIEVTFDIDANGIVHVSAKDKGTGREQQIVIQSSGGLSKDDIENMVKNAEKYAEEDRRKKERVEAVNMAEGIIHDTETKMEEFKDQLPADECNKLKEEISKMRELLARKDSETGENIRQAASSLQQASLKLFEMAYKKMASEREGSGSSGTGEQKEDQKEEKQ
UniProt O60610: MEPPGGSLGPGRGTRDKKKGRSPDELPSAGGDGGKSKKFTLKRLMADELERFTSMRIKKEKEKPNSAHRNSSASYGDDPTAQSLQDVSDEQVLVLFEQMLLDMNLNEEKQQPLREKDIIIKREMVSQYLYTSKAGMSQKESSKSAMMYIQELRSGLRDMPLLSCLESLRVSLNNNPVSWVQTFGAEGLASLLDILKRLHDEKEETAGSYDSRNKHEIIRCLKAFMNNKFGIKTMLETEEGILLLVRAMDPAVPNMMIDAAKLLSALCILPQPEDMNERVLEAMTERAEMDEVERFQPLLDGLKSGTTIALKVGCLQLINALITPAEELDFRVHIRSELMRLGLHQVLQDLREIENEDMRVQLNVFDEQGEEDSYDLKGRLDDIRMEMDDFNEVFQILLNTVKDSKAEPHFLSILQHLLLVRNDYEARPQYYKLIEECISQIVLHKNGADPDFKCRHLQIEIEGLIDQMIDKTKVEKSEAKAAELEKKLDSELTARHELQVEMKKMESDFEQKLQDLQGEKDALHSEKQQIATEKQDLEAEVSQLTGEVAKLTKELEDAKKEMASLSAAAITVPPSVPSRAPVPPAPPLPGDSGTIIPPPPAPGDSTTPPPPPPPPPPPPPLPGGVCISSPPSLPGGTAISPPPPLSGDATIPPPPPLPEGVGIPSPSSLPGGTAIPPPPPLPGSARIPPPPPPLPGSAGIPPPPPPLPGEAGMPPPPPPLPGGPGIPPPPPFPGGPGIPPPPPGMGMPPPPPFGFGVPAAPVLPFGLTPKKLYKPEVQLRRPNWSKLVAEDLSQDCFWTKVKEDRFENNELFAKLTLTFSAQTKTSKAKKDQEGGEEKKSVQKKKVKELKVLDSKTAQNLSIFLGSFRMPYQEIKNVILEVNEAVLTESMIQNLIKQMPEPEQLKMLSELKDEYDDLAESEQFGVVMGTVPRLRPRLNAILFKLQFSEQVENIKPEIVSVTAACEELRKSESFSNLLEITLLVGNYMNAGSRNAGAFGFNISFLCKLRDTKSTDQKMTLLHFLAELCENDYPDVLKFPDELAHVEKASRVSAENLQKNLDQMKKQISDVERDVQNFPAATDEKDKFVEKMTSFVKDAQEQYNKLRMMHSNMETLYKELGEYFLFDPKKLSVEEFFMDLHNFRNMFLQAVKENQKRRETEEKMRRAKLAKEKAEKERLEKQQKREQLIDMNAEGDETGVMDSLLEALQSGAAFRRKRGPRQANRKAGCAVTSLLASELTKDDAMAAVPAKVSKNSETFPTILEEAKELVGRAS

What was measured:
[1] = target: T1, MFN2, endogenous in human microvascular endothelial cells (HMVECs) (human (endogenous in HMVECs)) (UniProt O95140); experiment: proximity ligation; Duolink PLA on fixed cells (H9C2, HMVECs, BMDMs), endogenous proteins, rabbit anti-DIAPH1 and mouse anti-MFN2; shScr/WT against shDIAPH1/gDKO cells
T1 sequence: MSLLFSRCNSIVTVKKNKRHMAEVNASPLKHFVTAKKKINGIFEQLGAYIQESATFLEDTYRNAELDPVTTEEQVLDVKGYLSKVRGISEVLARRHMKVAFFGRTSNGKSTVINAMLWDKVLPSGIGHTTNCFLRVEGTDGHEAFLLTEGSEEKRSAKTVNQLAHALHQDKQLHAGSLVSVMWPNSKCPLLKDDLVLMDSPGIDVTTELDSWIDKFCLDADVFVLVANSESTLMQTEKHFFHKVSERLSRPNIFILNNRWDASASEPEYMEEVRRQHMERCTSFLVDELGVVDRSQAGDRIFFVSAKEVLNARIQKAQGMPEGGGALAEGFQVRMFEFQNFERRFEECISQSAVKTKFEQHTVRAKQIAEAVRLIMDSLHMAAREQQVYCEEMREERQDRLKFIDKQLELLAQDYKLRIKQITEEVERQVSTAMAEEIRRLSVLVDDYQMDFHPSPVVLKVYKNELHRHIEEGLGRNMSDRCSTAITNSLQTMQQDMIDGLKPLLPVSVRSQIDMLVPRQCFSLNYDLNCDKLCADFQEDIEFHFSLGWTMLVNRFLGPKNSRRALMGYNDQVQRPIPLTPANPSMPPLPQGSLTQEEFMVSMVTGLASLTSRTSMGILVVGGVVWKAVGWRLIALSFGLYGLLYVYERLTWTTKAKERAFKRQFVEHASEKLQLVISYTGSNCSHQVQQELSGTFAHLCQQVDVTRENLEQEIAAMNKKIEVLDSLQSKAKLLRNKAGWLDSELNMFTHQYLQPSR

[2] = target: T2, Truncated, modified cytosolic-MFN2 (human Mitofusin-2, residues 1-19 and 401-705 deleted) (human); experiment: cross-linking; 50 µM DID and 50 µM MFN2 with 250-500 µM cross-linker (KMUS, SMCC, SMPB, DSG, BS3, BS(PEG)5, BS(PEG)9), 20 mM potassium phosphate pH 7.5, 100 mM NaCl, 1-2 h at 25 °C; SDS-PAGE, in-gel trypsin digest and LC-MS/MS of the ~75 kDa band; both purified
T2 sequence: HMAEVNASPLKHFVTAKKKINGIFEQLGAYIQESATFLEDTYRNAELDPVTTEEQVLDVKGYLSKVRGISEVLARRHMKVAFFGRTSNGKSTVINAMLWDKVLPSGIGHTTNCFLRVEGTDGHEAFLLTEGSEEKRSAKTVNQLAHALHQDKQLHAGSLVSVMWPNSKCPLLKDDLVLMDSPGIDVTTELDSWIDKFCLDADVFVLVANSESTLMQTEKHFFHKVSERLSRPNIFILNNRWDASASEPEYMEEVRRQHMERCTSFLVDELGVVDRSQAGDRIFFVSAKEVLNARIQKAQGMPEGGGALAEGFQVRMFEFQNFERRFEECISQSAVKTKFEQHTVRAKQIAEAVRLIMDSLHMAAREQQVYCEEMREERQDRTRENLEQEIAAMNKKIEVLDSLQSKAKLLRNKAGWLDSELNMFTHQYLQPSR

[3] = target: T3, Mitofusin-2 (MFN2), endogenous human (human (endogenous in HiPSC-CMs, HMVECs, human heart)) (UniProt O95140); experiment: proximity ligation; Duolink PLA on fixed HiPSC-CMs, baseline and H/R; also with shDIAPH1, shAGER, Latrunculin B, RAGE229, CML-AGE, ER-Tracker co-staining
T3 sequence: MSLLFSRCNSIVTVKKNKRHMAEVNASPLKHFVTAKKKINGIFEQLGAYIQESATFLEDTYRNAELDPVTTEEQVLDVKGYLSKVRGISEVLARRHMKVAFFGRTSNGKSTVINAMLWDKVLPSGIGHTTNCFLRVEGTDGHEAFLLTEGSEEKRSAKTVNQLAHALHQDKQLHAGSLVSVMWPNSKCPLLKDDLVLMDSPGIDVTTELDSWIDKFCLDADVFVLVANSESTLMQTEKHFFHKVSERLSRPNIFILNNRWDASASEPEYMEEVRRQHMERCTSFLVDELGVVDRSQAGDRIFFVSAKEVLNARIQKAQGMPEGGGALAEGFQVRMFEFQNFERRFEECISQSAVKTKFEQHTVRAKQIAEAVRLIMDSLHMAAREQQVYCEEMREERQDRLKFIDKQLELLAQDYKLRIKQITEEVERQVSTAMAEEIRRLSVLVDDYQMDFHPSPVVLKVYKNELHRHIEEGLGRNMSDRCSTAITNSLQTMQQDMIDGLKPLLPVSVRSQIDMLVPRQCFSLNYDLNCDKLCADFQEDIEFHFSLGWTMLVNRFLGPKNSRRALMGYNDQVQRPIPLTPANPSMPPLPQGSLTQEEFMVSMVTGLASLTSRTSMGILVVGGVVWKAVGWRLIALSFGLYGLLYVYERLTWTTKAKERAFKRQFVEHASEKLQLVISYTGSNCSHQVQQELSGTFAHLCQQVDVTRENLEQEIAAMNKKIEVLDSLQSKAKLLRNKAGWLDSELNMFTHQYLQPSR

[4] = target: VDAC1, endogenous (human (endogenous in HiPSC-CMs, by context)) (UniProt P21796); experiment: as above
[5] = target: RhoA, endogenous (human (endogenous in HiPSC-CMs, by context)) (UniProt P61586); experiment: as above
[6] = target: T4, MFN1, endogenous human (human (endogenous in HiPSC-CMs)) (UniProt Q8IWA4); experiment: as above
T4 sequence: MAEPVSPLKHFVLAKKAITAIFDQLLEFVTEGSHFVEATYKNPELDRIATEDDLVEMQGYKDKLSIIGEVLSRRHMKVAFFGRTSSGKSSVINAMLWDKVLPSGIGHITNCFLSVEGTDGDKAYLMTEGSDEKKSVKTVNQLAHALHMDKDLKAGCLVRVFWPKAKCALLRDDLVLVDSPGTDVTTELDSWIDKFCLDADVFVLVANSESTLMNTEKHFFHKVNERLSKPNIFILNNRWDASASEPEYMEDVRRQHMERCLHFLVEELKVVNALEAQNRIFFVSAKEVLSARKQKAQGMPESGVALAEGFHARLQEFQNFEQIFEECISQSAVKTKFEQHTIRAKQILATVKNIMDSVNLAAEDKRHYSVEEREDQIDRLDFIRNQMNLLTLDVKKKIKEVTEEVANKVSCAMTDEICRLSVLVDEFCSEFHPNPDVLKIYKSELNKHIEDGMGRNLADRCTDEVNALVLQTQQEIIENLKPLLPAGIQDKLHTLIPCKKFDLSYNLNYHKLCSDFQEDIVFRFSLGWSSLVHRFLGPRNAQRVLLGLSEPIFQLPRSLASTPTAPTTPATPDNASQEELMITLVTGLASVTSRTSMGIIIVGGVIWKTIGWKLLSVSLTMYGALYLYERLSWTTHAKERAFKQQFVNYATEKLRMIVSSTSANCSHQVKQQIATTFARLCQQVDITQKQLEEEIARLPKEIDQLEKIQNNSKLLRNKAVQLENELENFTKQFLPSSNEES

[7] = target: GRP75, endogenous (human (endogenous in HiPSC-CMs, by context)) (UniProt P38646); experiment: as above
[8] = target: T3, Mitofusin-2 (MFN2), endogenous human (human (endogenous in HiPSC-CMs, HMVECs, human heart)); experiment: co-IP; HiPSC-CMs (shScr) exposed to H/R; 200 µg lysate, 2 µg antibody to DIAPH1 or MFN2 overnight, agarose A/G beads, Western blot for MFN2, DIAPH1 or MFN1
[9] = target: T3, Mitofusin-2 (MFN2), endogenous human (human (endogenous in HiPSC-CMs, HMVECs, human heart)); experiment: proximity ligation; Duolink PLA on fixed human microvascular endothelial cells (HMVECs), shScr against shDIAPH1
[10] = target: T3, Mitofusin-2 (MFN2), endogenous human (human (endogenous in HiPSC-CMs, HMVECs, human heart)); experiment: proximity ligation; Duolink PLA on paraffin sections of human heart biopsies (ischemic cardiomyopathy and control)

binding [1]: binds
Substance: DIAPH1, endogenous in human microvascular endothelial cells (HMVECs) (from UniProt O60610 1-1272)

binding [2]: binds
Substance: Diaphanous Inhibitory Domain (DID) of human protein diaphanous homolog 1, residues 142-380 (from UniProt O60610 142-380) (domain or fragment)

binding [3]: binds | binding [4]: no binding | binding [5]: binds weakly | binding [6]: no binding | binding [7]: no binding | binding [8]: binds | binding [9]: binds
Substance: Diaphanous-1 (DIAPH1), endogenous human (from UniProt O60610 1-1272)
binding [10]: binds
